Reference: the supplement of paper PMC3334620
Whole data set: some 33,000 sequences, median “E-score (-0.5 to 0.5)” near -8e-05, cut for the highest 2% near 0.23. The list shows a part of the results.

Each sequence was assayed against T1, Nrg2 (UniProt P38082) (assay: PBM E-score (8-mer binding enrichment) (E-score (-0.5 to 0.5)); higher = stronger / more preferred TF binding). Conditions: protein concentration: 100 nM; construct: GST-full length.
T1 sequence: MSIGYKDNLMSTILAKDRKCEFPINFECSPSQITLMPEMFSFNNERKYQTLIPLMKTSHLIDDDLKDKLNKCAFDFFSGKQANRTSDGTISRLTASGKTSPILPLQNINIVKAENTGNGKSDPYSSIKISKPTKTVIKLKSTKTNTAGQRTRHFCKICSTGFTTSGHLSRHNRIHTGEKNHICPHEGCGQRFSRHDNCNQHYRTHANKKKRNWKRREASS
Method in brief: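 Detection of bound protein used fluorescent anti-GST, with scans normalised by masliner. The proteins were GST-tagged yeast transcription factors applied at about 100-200 nM to universal all-10-mer Agilent arrays made double-stranded by primer extension. Each ungapped eight-base word, pooled with its reverse complement, was scored with an E-score from the Universal PBM Analysis Suite.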

Row | Sequence | PBM E-score
1 | ATGCATAG | -0.0009
2 | GGGAGATA | 0.138
3 | AGTATGAT | 0.223
4 | TCATCGAA | 0.00841
5 | CGAACACA | 0.135
6 | AGAGAATC | 0.058
7 | CCGATCGC | 0.0306
8 | GTCTAAAA | -0.0766
9 | CCGGTGAG | -0.149
10 | GGCGAGCA | 0.111
11 | ACGTTTTG | -0.0711
12 | CGCGGTTA | 0.0611
13 | AAAGGTGA | -0.124
14 | GGATTGCA | 0.133
15 | ATAAACGG | 0.0585
16 | GATGATAC | -0.0297
17 | TACATACA | 0.199
18 | AGAAAAGG | 0.0545
19 | GCTAATAA | 0.103
20 | ACCGTAGG | -0.28
21 | CACCCCTG | -0.0851
22 | CAGGCAGG | -0.111

Row | Sequence | PBM E-score
23 | AATCGTCA | 0.131
24 | GCCCGCGC | 0.156
25 | CGGCGACG | -0.0744
26 | CGCGTTAA | 0.1
27 | CCTATCCG | -0.087
28 | AATCGTGA | -0.154
29 | CCTGTACG | -0.0944
30 | AGTGTCGG | -0.0219
31 | CACGTCGG | -0.0592
32 | CAATCGGA | 0.181
33 | GACGTATA | -0.135
34 | ACGTCAGT | -0.122
35 | CACGCCAA | -0.0877
36 | ATAAAAGC | -0.0139
37 | GATGAGGC | -0.121
38 | TTACCAAA | 0.00847
39 | AGTGGTTC | -0.0506
40 | CCATATAA | 0.118
41 | AGCGTGCG | 0.031
42 | CCGCCCTA | -0.172
43 | CATTTAGC | -0.102
44 | GTAGAAGA | -0.164

Single entries from above.
PBM E-score with GACGTATA is entered as -0.135
PBM E-score with GTAGAAGA is entered as -0.164

(further entries)

Row | Sequence | PBM E-score
45 | AATACGAA | 0.0961
46 | CACAACCC | 0.0202
47 | AACAGCTA | 0.101
48 | GAAGAGAC | -0.0499
49 | GCAAAGGC | -0.141
50 | CACATAAG | 0.0356
51 | ATTAGAAA | 0.0627
52 | AGTATACT | -0.169
53 | CACCGGGA | -0.203
54 | GAGCGTAA | 0.049
55 | AGCCAACT | -0.124
56 | ACGCCGAT | -0.0002
57 | AACTGATT | -0.0472
58 | GGAAGACC | -0.163
59 | CCGTTACG | -0.188
60 | GACGAGTC | -0.0895
61 | AGCGTAAC | 0.00113
62 | AAAGTTGG | 0.132
63 | AAAATGAT | 0.222
64 | GGTGCCAC | -0.207
65 | TAATGATA | 0.243
66 | CGCTGCGA | 0.0021

Row | Sequence | PBM E-score
67 | ACGCTCTA | -0.258
68 | CTTTCCCA | -0.104
69 | AGTGGGTC | -0.175
70 | CTCCGTCA | -0.153
71 | AGCGCAAG | 0.0342
72 | CTCAATCA | 0.0928
73 | CCTGGCCC | 0.12
74 | AGGCACCT | -0.177
75 | AATCTGCT | -0.0883
76 | AGGTTGCC | -0.0813
77 | ACGTAACG | -0.111
78 | CTAAGTAA | 0.0717
79 | GACCGTGA | -0.0508
80 | CACCCATC | -0.0202
81 | AAAGCAAA | 0.102
82 | CAATTAAG | -0.0123
83 | AAACAGGT | -0.0166
84 | AGCTGTTC | -0.075
85 | CTGTGGCC | -0.12
86 | AAGTTCAA | 0.134
87 | AATCTCCC | -0.0515
88 | AATCAGGT | 0.135

From entry 84 as far as 85, copied from above:
Row | Sequence | PBM E-score
84 | AGCTGTTC | -0.075
85 | CTGTGGCC | -0.12

The list continues.

Row | Sequence | PBM E-score
89 | TCAACTCA | -0.0189
90 | GAGCCAAA | 0.0628
91 | AGCTACCA | -0.0448
92 | CTATAAAG | -0.105
93 | GATTTGCC | 0.0874
94 | CCCTTTGA | -0.0356
95 | GCAGCCCA | -0.0737
96 | AAACCTAG | -0.00692
97 | GCCGCACA | -0.0789
98 | ATATAACC | 0.145
99 | AAAATATA | 0.00189
100 | AGTTTGGA | -0.00777
101 | ATGCAAGG | -0.0933
102 | GCCAGGAC | -0.0334
103 | TAGGGACA | 0.0336
104 | AAGAAGGG | -0.0449
105 | GGAAGAAA | -0.00468
106 | ACGCACGG | 0.123
107 | CAGGTGCC | -0.151
108 | GACTCATC | -0.166
109 | ATTCGGTA | 0.074
110 | AGATGGAC | -0.0062
